According to the supplement of paper PMC4604168 (melanoma cell lines):
This is one part of the list. Repeats are few or missing, and single values can be far off.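 The apoptosis fraction was the count of cleaved-PARP antibody-stained nuclei relative to all DNA-stained nuclei, imaged in 1,536-well plates. Screening doses were set so most cells survived, and baseline and induced cleaved-PARP levels vary greatly across cell lines.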

tested on: UACC257; experiment: cleaved PARP positive nuclei fraction relative to DMSO control; melanoma cells; higher = more apoptosis; conditions: library dose: low library concentration; 72 h

Compared with `C[C@]12O[C@H](C[C@]1(O)CO)n1c3ccccc3c3c4c(c5c6ccccc6n2c5c31)CNC4=O` [Lestaurtinib] + Oc1cc(-c2nc(-c3ccccc3)[nH]c2-c2ccncc2)ccc1Cl [L779450] (first compound 0.004 µM, partner dose 0.2 µM), `O=C(O)c1ccc(-c2c[nH]c3ncc(-c4ccccc4)cc23)cc1C1CCCC1` + O=C(Oc1ccc([N+](=O)[O-])cc1)N1CCC(C(O)(c2ccc3c(c2)OCO3)c2ccc3c(c2)OCO3)CC1 [JZL184] (first compound 0.16 µM, partner dose 1 µM) is lower in “cleaved PARP positive nuclei fraction” value: 230% for the first, 144% for the second.

First: COc1ccc2c(c1)CCC1C2CCC2(C)C(NCCCCCCN3C(=O)C=CC3=O)CCC12 (stereo unspecified) + C/C(O)=C(\C#N)C(=O)Nc1cc(Br)ccc1Br [LFM-A13] (first compound 0.4 µM, partner dose 2 µM)
Second: COC(=O)c1sccc1S(=O)(=O)Nc1ccc(Nc2ccccc2)cc1OC + C/C(O)=C(\C#N)C(=O)Nc1cc(Br)ccc1Br [LFM-A13] (first compound 1 µM, partner dose 2 µM)
The “cleaved PARP positive nuclei fraction” value of the first is higher: 210% for the first, 103% for the second.

First: Cc1cc(SCc2sc(-c3ccc(C(F)(F)F)c(F)c3)nc2C)ccc1OCC(=O)O + C/C(O)=C(\C#N)C(=O)Nc1cc(Br)ccc1Br [LFM-A13] (first compound 2 µM, partner dose 2 µM)
Second: C[C@@H]1CCN(C(=O)CC#N)C[C@@H]1N(C)c1ncnc2[nH]ccc12 + Cc1cc(SCc2sc(-c3ccc(C(F)(F)F)c(F)c3)nc2C)ccc1OCC(=O)O [GW0742] (first compound 1 µM, partner dose 2 µM)
The “cleaved PARP positive nuclei fraction” value of the first is lower: 56.9% for the first, 82.9% for the second.
